In paper PMC9368491 one finds binding data, which are given here for one substance.

By UniProt entry, the sequences of proteins in these tests, tags left out. Where a name states a change or a piece, a line headed by the entry shows the natural chain unless it says otherwise.
UniProt Q03135: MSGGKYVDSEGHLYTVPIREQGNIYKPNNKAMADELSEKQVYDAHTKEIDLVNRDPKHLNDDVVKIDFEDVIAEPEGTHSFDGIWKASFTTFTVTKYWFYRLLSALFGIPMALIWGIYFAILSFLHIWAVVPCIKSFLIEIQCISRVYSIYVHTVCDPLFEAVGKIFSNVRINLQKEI
UniProt P35222: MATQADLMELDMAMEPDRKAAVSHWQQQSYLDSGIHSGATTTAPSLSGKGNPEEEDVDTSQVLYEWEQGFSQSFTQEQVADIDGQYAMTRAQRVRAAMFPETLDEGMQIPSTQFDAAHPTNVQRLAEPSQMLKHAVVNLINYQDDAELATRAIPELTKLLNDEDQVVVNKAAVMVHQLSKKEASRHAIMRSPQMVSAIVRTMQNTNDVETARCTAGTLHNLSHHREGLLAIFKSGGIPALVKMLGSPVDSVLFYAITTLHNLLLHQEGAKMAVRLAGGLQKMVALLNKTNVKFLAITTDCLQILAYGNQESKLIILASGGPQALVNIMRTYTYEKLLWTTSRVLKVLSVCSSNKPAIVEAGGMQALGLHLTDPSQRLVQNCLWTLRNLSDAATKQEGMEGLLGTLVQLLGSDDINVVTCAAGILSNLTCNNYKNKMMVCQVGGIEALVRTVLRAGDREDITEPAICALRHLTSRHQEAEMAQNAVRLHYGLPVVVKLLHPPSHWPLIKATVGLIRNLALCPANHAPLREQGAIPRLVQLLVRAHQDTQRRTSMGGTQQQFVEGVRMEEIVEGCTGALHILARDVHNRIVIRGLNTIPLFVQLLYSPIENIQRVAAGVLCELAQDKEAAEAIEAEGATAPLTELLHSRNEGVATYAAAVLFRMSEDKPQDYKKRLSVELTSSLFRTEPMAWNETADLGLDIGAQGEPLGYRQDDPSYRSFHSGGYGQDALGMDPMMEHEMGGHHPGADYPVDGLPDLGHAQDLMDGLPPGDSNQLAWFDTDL

Assay in all cases: co-IP; MCF-7 cells transfected with Cav-1 WT, Y14F or Y14D, treated with DMSO or 50 μM NS1643 for 1 h; lysed and precipitated with anti-Cav-1 antibody; eluted proteins blotted for β-catenin
The target in assay [1] is Cav-1 wild type (WT) (human) (UniProt Q03135).
Assay [2] concerns the target Cav-1 phosphodefective Y14F mutant (human) (UniProt Q03135).
The target of assay [3] is Cav-1 phosphomimicking Y14D mutant (human) (UniProt Q03135).

These are yes or no findings as the source states them, for the method shown. Binding seen in cells or lysates may run through a third protein. Some results given as binding are weak or reduced against the parent protein; the word gives no strength.

Take β-catenin (from UniProt P35222 1-781): the values for the binding entry in assay [1], in assay [2] and in assay [3] were “binds”, “binds weakly” and “binds”, respectively.
